Test results as given in article PMC7466261 (Foods, 2020).

Assay: general procedure: Fmoc solid-phase peptide synthesis; polystyrene-based resin (Applied Biosystems)
Details: whole synthesis, HPLC-MS/MS, peak integration

Going from YPFVEP to YPFPGPI, the “purity (crude or final not stated)” value falls from 100.0% to 96.0%.

Compared with FYPEL, YGFLP is higher in “purity (crude or final not stated)” value: 99.0% for the first, 100.0% for the second.

Compared with RYLGYLE, YPFPGPIP is higher in “purity (crude or final not stated)” value: 73.4% for the first, 92.9% for the second.

Compared with AYFYPE, YPFVE is lower in “purity (crude or final not stated)” value: 99.2% for the first, 95.0% for the second.

First: YPFPGPIN
Second: YFYPEL
The “purity (crude or final not stated)” value of the first is lower: 94.0% for the first, 100.0% for the second.

Compared with YPVEPF, RYLGY is lower in “purity (crude or final not stated)” value: 92.3% for the first, 88.0% for the second.

Going from YLGYLE to PEPTIDE1{Y.P.W.T}$$$$V2.0, the “purity (crude or final not stated)” value falls from 98.9% to 91.7%.

End groups of sequences in plain letters are not given here. Strings that start with PEPTIDE1 are HELM notation: dots part the residues, brackets hold end groups and non-standard residues. Where no end group is shown, it is not given here.
